Assay results published in the supplement of paper PMC10663445.
Structures can show the parent of a compound that is named as a salt. ± gives the standard deviation of the averaged measurements. The list shows a part of the results. Most values come without repeats; read them as rough.

tested on: hsa-miR-132-3p; assay: miR-132-3p level in NGN2-iNs after compound treatment (TMM-normalised, ComBat batch-corrected) (batch-corrected normalised expression (arbitrary units)); higher = higher miR-132-3p expression; conditions: 10 µM; 24 h; human iPSC-derived NGN2 neurons (BR43)

Row | SMILES | miR-132-3p level in NGN2-iNs
1 | C[C@H](Cc1cc2c(c(C(N)=O)c1)N(CCCO)CC2)NCCOc1ccccc1OCC(F)(F)F [Silodosin] | 1.57
2 | O=C(O)C1=CO[C@@H](O[C@@H]2O[C@H](CO)[C@@H](O)[C@H](O)[C@H]2O)[C@@H]2C(CO)=CC[C@H]12 [Geniposidic acid] | 1.26
3 | COc1c(C)c2c(c(O)c1C/C=C(\C)CCC(=O)O)C(=O)OC2 [Mycophenolic acid] | -0.647
4 | NS(=O)(=O)c1cc(Cl)c(Cl)c(S(N)(=O)=O)c1 [Dichlorphenamide (Diclofenamide)] | -0.943
5 | CCCC1O[C@@H]2C[C@H]3[C@@H]4CCC5=CC(=O)C=C[C@]5(C)[C@H]4[C@@H](O)C[C@]3(C)[C@]2(C(=O)CO)O1 (stereo not given in full) [Budesonide] | 1.47
6 | COc1cc(C(C)=O)ccc1OCCCN1CCC(c2noc3cc(F)ccc23)CC1 [Iloperidone] | 0.546
7 | CCOC(=O)[C@H](CCc1ccccc1)N[C@H]1CCCN2CCC[C@@H](C(=O)O)N2C1=O [Cilazapril Monohydrate] | -0.989
8 | Cc1cc(C)c2c(c1)[C@@H](N(Cc1cc(C(F)(F)F)cc(C(F)(F)F)c1)c1nnn(C)n1)CCCN2C[C@H]1CC[C@H](C(=O)O)CC1 | -0.279
9 | CNC(=O)c1ccccc1Nc1nc(Nc2ccc(N3CCOCC3)cc2OC)ncc1Cl | -1.03
10 | CC1=C(C(=O)Nc2cc3cn[nH]c3cc2F)C(c2ccc(C(F)(F)F)cc2)CC(=O)N1 (stereo not given) | 0.515
11 | CCCCN(Cc1ccc(C(=O)NO)cc1)C(=O)Nc1ccccc1 [Nexturastat A] | -1.11
12 | COC(=O)N[C@H](C(=O)N1CCC[C@H]1c1ncc(-c2ccc(-c3ccc(-c4cnc([C@@H]5CCCN5C(=O)[C@@H](NC(=O)OC)C(C)C)[nH]4)cc3)cc2)[nH]1)C(C)C | 0.266
13 | CCOc1cc(CC(=O)N[C@@H](CC(C)C)c2ccccc2N2CCCCC2)ccc1C(=O)O [Repaglinide] | 0.237
14 | O=C(O)C(Cc1c[nH]c2ccccc12)N1C(=O)c2ccccc2C1=O (stereo not given) | -0.349
15 | CCOC(=O)C1=C(C)NC(C)=C(C(=O)OCC)C1c1ccccc1/C=C/C(=O)OC(C)(C)C [Lacidipine] | -0.357
16 | COc1ccc(C(=O)CC(=O)c2ccc(C(C)(C)C)cc2)cc1 [Avobenzone] | 0.0422
17 | NC1CC1c1ccc(-c2cccc(O)c2)cc1 (stereo not given) | 0.493
18 | CC(C)NCC(O)c1ccc(O)c(O)c1 (stereo not given) [Isoprenaline HCl] | 0.362
19 | CS(=O)(=O)N1CCN(Cc2cc3nc(-c4cccc5[nH]ncc45)nc(N4CCOCC4)c3s2)CC1 [Pictilisib (GDC-0941)] | -0.134
20 | Nc1nc2c(ncn2COCCO)c(=O)[nH]1 [Aciclovir] | -0.155

Row | SMILES | miR-132-3p level in NGN2-iNs
21 | COC(=O)C1=C(C)NC(C)=C(C(=O)OC2CCCN(Cc3ccccc3)C2)C1c1cccc([N+](=O)[O-])c1 (stereo not given) [Benidipine HCl] | -1.03
22 | CCNC(=O)CCC/C=C\C[C@@H]1[C@@H](/C=C/[C@@H](O)CCc2ccccc2)[C@H](O)C[C@@H]1O [Bimatoprost] | 0.665
23 | COc1ccc(S(=O)(=O)Nc2cccnc2Nc2ccc(O)cc2)cc1 | -2.85
24 | O=C(Nc1cc2cc[nH]c2cn1)c1ccccc1 | -0.97
25 | O=C1NCCc2[nH]c(-c3ccncc3)cc21 | -0.744
26 | O=C(/C=C/c1ccc(O)c(O)c1)c1ccc(O)cc1O [Butein] | 0.21
27 | O=C(CCCCCCC(=O)Nc1ccccc1)NO [Vorinostat (SAHA, MK0683)] | -0.154
28 | Nc1nonc1C(=Nc1ccc(F)c(Cl)c1)NO | -0.38
29 | NCCCCCNCC12CC3CC(CC(C3)C1)C2 | 0.348
30 | CC1(C)O[C@@H]2C[C@H]3[C@@H]4CCC5=CC(=O)C=C[C@]5(C)[C@H]4[C@@H](O)C[C@]3(C)[C@]2(C(=O)CO)O1 [Desonide] | 0.673
31 | O=C(O)c1ccc2c(c1)nc(Nc1cccc(Cl)c1)c1ccncc12 [Silmitasertib (CX-4945)] | 0.492
32 | O=C1CC(=O)c2c(Cl)c(Cl)c(Cl)c(Cl)c21 | -0.272
33 | COc1cc2/c(=N/c3ccc(Br)cc3F)nc[nH]c2cc1OCC1CCN(C)CC1 [Vandetanib (ZD6474)] | -0.307
34 | CCN(CC)C(=S)SSC(=S)N(CC)CC [Disulfiram] | 1.58
35 | C=C[C@@]1(C)CC(=O)[C@]2(O)[C@@]3(C)[C@@H](O)CCC(C)(C)[C@@H]3[C@H](O)[C@H](OC(C)=O)[C@@]2(C)O1 [Forskolin] | 2.54 ± 0.88
36 | O=C(CCCCCN1C(=O)c2cccc3cccc(c23)C1=O)NO [Scriptaid] | 1.36
37 | CCOC(=O)n1ccn(C)c1=S [Carbimazole] | 0.528
38 | COc1cc(O)c2c(c1)C(=O)c1cc(C)cc(O)c1C2=O [Rheochrysidin] | -0.11
39 | Cc1cc(NS(=O)(=O)c2ccc(N)cc2)no1 [Sulfamethoxazole] | -0.412
40 | CC1(C)S[C@@H]2[C@H](NC(=O)[C@H](C(=O)O)c3ccsc3)C(=O)N2[C@H]1C(=O)O [Ticarcillin sodium] | -1.21

A different layout for some results above.
Row	SMILES	miR-132-3p level in NGN2-iNs
28	Nc1nonc1C(=Nc1ccc(F)c(Cl)c1)NO	-0.38
38	COc1cc(O)c2c(c1)C(=O)c1cc(C)cc(O)c1C2=O [Rheochrysidin]	-0.11
